Experimental data published in patent US8628922B2, “Screening method for cell aging” (Chronos Therapeutics Limited, priority 2009, dated 2014).
Read-outs that look alike come from different tables or passages of the source. At least one structure is not confirmed: it was looked up by name or label, or the drawing left a doubt.

What was measured:
histone H3 = type: cell-based, S. cerevisiae; conditions: 10 μM rapamycin up to 3 hours
HA-Spt7 = type: cell-based, S. cerevisiae; conditions: FY2030 (HA-Spt7), 10 μM rapamycin
Gcn5 = type: cell-based, S. cerevisiae
CIT2 = assay: Gene expression (RNA quantitation) after rapamycin treatment; type: cell-based, S. cerevisiae
Gal83-HA = assay: Indirect immunofluorescence of Gal83-HA localisation in fixed cells; type: cell-based, S. cerevisiae; conditions: 10 μM rapamycin up to 3 hours
[1] = system: exponentially growing cells; conditions: cited from earlier work
[2] = exponentially growing cells, WT

## CO[C@H]1C[C@@H]2CC[C@@H](C)[C@@](O)(O2)C(=O)C(=O)N2CCCC[C@H]2C(=O)O[C@H]([C@H](C)C[C@@H]2CC[C@@H](O)[C@H](OC)C2)CC(=O)[C@H](C)/C=C(\C)[C@@H](O)[C@@H](OC)C(=O)[C@H](C)C[C@H](C)/C=C/C=C/C=C/1C [rapamycin]
Histone H3; [2]
  K14ac level on histone H3: reductions
  K18ac level on histone H3: reductions
  trimethylation (me3) of K4 on histone H3: reductions
Histone H3; strains lacking Spt8 or Spt20 (BY4741 background)
  K14ac level on histone H3: do not detectably change
HA-Spt7
  HA-Spt7 levels and integrity: Reduced levels and C-terminal truncation
Gcn5; WT cells, 10 μM rapamycin
  Levels of Gcn5: drop significantly
Gcn5; cells expressing Spt7-217, 10 μM rapamycin
  Levels of Gcn5: higher
CIT2; addition of rapamycin, FIG. 9b
  levels of CIT2 expression: increased
CIT2; rapamycin during the early stages of growth
  expression of SLIK/SALSA regulated genes: upregulation
Gal83-HA
  localisation of HA tagged-Gal83: moves from the cytoplasm to the nucleus
[1]
  growth and proliferation: blocks growth and proliferation
